These are yes or no findings as the source states them, for the method shown. In cells and extracts the contact can be indirect. Some results given as binding are weak or reduced against the parent protein; the word gives no strength. Sequences can lack the tags named with a protein.

By UniProt entry, the sequences of proteins in these tests, tags left out.
UniProt Q3URK3: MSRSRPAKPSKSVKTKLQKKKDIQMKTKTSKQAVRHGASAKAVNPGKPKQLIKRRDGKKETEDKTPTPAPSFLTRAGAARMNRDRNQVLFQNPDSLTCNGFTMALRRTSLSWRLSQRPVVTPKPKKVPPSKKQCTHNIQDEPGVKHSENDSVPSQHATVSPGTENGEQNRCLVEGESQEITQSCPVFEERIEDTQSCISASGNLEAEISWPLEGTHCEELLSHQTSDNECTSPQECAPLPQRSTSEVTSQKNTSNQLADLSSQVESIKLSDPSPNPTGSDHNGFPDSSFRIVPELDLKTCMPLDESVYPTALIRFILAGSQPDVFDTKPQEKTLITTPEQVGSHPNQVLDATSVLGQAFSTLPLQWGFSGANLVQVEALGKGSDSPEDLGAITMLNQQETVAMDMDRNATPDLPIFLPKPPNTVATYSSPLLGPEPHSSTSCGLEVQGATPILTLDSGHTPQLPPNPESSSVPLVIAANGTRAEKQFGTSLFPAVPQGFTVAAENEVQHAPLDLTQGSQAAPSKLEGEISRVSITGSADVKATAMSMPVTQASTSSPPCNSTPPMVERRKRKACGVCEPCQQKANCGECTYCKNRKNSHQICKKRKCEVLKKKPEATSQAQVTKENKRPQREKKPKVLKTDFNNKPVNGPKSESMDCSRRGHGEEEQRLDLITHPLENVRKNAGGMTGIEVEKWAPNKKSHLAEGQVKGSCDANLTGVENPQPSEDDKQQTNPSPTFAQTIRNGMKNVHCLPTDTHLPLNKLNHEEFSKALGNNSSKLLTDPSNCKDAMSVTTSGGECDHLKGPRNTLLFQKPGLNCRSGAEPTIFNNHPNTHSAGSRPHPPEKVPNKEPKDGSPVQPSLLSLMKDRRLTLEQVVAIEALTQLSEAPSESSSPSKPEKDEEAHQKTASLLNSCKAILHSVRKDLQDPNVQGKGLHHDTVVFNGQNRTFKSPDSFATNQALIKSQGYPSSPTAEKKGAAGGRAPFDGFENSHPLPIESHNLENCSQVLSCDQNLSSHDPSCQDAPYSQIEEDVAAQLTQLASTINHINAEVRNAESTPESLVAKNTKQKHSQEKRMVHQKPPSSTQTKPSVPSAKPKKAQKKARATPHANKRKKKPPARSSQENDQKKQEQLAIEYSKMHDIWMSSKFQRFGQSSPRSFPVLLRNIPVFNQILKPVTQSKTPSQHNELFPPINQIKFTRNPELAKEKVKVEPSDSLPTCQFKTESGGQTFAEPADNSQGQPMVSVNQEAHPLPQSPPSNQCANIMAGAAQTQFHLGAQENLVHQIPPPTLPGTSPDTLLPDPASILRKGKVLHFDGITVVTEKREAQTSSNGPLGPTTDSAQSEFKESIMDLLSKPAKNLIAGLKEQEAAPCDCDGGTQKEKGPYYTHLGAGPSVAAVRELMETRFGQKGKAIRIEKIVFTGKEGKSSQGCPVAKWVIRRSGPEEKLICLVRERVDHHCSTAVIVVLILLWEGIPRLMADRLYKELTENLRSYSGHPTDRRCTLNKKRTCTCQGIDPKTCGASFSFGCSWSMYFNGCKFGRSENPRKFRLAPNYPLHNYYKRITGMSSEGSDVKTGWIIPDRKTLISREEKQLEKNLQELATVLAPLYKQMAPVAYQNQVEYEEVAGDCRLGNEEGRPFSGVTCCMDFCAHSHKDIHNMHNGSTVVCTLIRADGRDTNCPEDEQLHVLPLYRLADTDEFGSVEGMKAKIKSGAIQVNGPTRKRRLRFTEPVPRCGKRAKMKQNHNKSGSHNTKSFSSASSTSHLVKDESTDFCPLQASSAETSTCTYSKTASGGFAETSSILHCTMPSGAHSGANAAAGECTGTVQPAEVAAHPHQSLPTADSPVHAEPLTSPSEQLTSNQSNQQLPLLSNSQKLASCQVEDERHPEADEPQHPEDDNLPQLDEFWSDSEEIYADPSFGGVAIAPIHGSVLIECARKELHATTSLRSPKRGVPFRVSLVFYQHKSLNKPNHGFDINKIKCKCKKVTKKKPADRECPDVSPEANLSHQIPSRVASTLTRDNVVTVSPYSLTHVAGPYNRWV
UniProt Q8BG87: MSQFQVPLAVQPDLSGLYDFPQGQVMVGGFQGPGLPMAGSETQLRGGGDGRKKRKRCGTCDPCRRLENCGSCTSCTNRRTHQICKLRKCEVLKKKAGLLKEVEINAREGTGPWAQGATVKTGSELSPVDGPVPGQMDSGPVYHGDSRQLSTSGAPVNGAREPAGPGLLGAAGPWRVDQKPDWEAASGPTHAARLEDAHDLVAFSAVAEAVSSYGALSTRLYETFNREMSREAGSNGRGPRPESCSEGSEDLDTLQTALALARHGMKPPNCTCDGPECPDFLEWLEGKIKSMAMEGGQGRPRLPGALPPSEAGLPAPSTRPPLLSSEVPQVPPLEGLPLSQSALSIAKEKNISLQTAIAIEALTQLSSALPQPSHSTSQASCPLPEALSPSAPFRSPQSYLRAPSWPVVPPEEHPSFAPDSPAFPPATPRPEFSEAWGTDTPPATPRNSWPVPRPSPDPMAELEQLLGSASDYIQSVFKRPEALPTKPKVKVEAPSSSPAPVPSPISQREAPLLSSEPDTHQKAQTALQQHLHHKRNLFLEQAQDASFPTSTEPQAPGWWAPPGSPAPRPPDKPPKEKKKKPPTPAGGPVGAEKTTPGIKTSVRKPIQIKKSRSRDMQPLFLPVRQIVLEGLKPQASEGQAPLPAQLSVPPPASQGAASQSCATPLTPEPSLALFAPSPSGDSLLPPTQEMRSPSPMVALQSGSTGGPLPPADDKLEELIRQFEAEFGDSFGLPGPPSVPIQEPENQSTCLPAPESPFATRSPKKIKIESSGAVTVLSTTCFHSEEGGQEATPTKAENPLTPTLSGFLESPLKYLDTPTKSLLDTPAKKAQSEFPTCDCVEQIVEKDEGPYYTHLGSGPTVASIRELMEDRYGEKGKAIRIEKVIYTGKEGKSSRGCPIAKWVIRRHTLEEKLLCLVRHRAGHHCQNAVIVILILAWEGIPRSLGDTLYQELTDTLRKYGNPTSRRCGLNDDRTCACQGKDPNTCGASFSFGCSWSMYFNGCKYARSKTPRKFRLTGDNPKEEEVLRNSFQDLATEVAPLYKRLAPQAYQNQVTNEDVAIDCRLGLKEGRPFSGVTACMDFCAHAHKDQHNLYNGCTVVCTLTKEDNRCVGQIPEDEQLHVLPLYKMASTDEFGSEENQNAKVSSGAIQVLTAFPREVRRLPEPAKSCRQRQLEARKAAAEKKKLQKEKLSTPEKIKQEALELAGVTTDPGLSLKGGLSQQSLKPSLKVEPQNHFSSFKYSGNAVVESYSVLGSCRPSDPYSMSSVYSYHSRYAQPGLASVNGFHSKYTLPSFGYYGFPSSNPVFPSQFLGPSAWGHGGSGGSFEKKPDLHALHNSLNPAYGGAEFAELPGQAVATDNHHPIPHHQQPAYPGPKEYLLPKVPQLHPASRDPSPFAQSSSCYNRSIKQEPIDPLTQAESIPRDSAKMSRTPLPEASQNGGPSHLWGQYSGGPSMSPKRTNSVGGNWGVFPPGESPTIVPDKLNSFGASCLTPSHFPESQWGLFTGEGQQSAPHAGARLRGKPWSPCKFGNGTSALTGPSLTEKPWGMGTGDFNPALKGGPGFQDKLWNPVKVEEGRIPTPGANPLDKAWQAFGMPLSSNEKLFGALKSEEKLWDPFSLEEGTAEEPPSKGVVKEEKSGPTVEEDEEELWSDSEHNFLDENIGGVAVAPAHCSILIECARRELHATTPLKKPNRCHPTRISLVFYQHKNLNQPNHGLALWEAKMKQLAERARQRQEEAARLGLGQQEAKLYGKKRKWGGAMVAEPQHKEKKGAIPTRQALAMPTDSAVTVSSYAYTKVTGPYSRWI

We go through one molecule from patent US20210277402A1.

For assay [1], the target named is Ten-eleven translocation methylcytosine dioxygenase 1 (Tet1) (mouse) (UniProt Q3URK3). Kind of assay: co-immunoprecipitation from mouse HSC lysates (FIG. 10A).
In another assay the target is Tet3 (mouse) (UniProt Q8BG87). Kind of assay: co-immunoprecipitation from mouse HSC lysates (FIG. 10B).

B1: O-linked N-acetylglucosamine (O-GlcNAc) transferase OGT (enzyme, mouse, UniProt Q8CGY8 2-1046, looked up)
chain: ASSVGNVADSTEPTKRMLSFQGLAELAHREYQAGDFEAAERHCMQLWRQEPDNTGVLLLLSSIHFQCRRLDRSAHFSTLAIKQNPLLAEAYSNLGNVYKERGQLQEAIEHYRHALRLKPDFIDGYINLAAALVAAGDMEGAVQAYVSALQYNPDLYCVRSDLGNLLKALGRLEEAKACYLKAIETQPNFAVAWSNLGCVFNAQGEIWLAIHHFEKAVTLDPNFLDAYINLGNVLKEARIFDRAVAAYLRALSLSPNHAVVHGNLACVYYEQGLIDLAIDTYRRAIELQPHFPDAYCNLANALKEKGSVAEAEDCYNTALRLCPTHADSLNNLANIKREQGNIEEAVRLYRKALEVFPEFAAAHSNLASVLQQQGKLQEALMHYKEAIRISPTFADAYSNMGNTLKEMQDVQGALQCYTRAIQINPAFADAHSNLASIHKDSGNIPEAIASYRTALKLKPDFPDAYCNLAHCLQIVCDWTDYDERMKKLVSIVAEQLEKNRLPSVHPHHSMLYPLSHGFRKAIAERHGNLCLDKINVLHKPPYEHPKDLKLSDGRLRVGYVSSDFGNHPTSHLMQSIPGMHNPDKFEVFCYALSPDDGTNFRVKVMAEANHFIDLSQIPCNGKAADRIHQDGIHILVNMNGYTKGARNELFALRPAPIQAMWLGYPGTSGALFMDYIITDQETSPAEVAEQYSEKLAYMPHTFFIGDHANMFPHLKKKAVIDFKSNGHIYDNRIVLNGIDLKAFLDSLPDVKIVKMKCPDGGDNPDSSNTALNMPVIPMNTIAEAVIEMINRGQIQITINGFSISNGLATTQINNKAATGEEVPRTIIVTTRSQYGLPEDAIVYCNFNQLYKIDPSTLQMWANILKRVPNSVLWLLRFPAVGEPNIQQYAQNMGLPQNRIIFSPVAPKEEHVRRGQLADVCLDTPLCNGHTTGMDVLWAGTPMVTMPGETLASRVAASQLTCLGCLELIAKSRQEYEDIAVKLGTDLEYLKKIRGKVWKQRISSPLFNTKQYTMELERLYLQMWEHYAAGNKPDHMIKPVEVTESA
Take B1: the binding entry (in assay [1]; with Tet3 (mouse)) was “binds” in each case.
